The record followed here is doi:10.1101/2022.04.08.487625.

Amino acid sequences for entries named in this document (tags omitted).
UniProt P04406: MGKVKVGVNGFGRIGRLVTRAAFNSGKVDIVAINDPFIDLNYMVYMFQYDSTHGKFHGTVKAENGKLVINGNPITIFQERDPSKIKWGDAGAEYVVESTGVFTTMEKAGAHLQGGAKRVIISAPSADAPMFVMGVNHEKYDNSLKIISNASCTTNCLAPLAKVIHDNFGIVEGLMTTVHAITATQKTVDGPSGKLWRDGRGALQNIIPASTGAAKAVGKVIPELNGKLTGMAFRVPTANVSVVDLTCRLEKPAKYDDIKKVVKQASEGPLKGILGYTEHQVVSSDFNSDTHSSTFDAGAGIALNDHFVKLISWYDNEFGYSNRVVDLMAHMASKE
UniProt P35637: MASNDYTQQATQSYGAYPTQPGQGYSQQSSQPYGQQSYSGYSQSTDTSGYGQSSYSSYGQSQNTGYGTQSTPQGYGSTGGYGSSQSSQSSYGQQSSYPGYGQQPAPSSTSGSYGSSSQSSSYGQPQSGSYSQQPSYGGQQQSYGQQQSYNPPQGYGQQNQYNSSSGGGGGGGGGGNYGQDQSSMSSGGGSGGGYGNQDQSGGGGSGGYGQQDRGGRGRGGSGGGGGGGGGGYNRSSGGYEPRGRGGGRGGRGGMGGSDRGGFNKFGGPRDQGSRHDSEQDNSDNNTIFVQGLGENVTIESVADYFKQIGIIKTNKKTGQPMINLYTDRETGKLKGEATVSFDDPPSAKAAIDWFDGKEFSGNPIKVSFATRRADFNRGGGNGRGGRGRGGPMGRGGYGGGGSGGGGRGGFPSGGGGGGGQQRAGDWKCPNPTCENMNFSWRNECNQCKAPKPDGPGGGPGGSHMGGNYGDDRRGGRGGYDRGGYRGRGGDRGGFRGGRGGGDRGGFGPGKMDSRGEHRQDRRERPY

Results are given in words; binding and its absence hold for the method and conditions named. Binding seen in cells or lysates may run through a third protein. Some results given as binding are weak or reduced against the parent protein; the word gives no strength.

Assay [1] addresses GAPDH (human (endogenous in HeLa)) (UniProt P04406). Description: proximity ligation.
In assay [2] the target is FUS (human (endogenous in HeLa)) (UniProt P35637). As to the kind of experiment: proximity ligation.

B1: RNase H1 (enzyme, UniProt O60930 1-286)
chain: MSWLLFLAHRVALAALPCRRGSRGFGMFYAVRRGRKTGVFLTWNECRAQVDRFPAARFKKFATEDEAWAFVRKSASPEVSEGHENQHGQESEAKASKRLREPLDGDGHESAEPYAKHMKPSVEPAPPVSRDTFSYMGDFVVVYTDGCCSSNGRRRPRAGIGVYWGPGHPLNVGIRLPGRQTNQRAEIHAACKAIEQAKTQNINKLVLYTDSMFTINGITNWVQGWKKNGWKTSAGKEVINKEDFVALERLTQGMDIQWMHVPGHSGFIGNEEADRLAREGAKQSED
Consider B1, for which the figures for the binding entry in assay [1] and in assay [2] were “no binding” and “binds”, respectively.
